Reference: PubChem BioAssay AID2685 (National Center for Advancing Translational Sciences (NCATS), 2010)
The campaign covered roughly 320,000 compounds. About 2,100 (0.66%) were called active. The inconclusive results got no clear call from the source; some entries with a clear call stand among them for comparison. Calls come from the whole dose curve; as a rule, active = well fitted inhibition curve with a large enough effect in the signal ratio, with a control signal flat (not every such curve was filed as active); inconclusive = small, poorly fitted or top-dose-only effect, or effect the other way, or a change in a side signal; inactive = flat fitted curve, though single readings scatter; the % refers to the signal ratio. Potencies beside an inconclusive call are fits to weak or partial responses and may not hold up.

Test: qHTS Assay for Lipid Storage Modulators in Drosophila S3 Cells
Conditions: BODIPY lipid droplet fluorescence, 18-24 h, cells fed with added oleic acid; lipid storage change, negative = inhibition: at 46.1 µM (top of the series) unless noted
Method in brief: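 Drosophila S3 cells got compounds at several concentrations plus oleic acid (400 uM solution). Laser-scanning cytometry with 488 nm excitation read lipid droplets at 500-530 nm and cells at 575-640 nm. Percent activity was relative to 20 uM Triacsin C.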
% is set by controls: 0 for no effect and ±100 for the full control effect; potency is the fitted concentration of half-maximal effect.

Row | SMILES | Potency | lipid storage change, negative = inhibition
1 | O=C(NCCc1ccccc1)C(=O)NN=C1CCCC1 | active: 29.1 µM | 
2 | CCOc1c(Br)cc(C(=O)NCCCn2ccnc2)cc1OC |  | inconclusive: 21.7%
3 | O=C(NCC1CCCO1)C1CCCN(S(=O)(=O)c2ccc(Br)cc2)C1 (centres undefined) | inconclusive: 1.46 µM [falling, partial curve, poor fit] | 
4 | COC(=O)[C@@]12CCCCN1[C@H](c1ccc(SC3CCCCC3)cc1)[C@H]1C(=O)N(C)C(=O)[C@H]12 |  | inactive: 11.4%
5 | O=C(O)/C=C\c1ccccc1Oc1cccc(Cl)c1 |  | inconclusive: 9.68%
6 | CSCCCNC(=S)N1CCN(c2ccc(C(C)=O)cc2)CC1 |  | inconclusive: 30.6%
7 | O=C(Cc1ccccc1Cl)Nc1cccnc1 |  | inconclusive: 6.13%
8 | COc1cc2c(cc1OC)C(C(=O)NCc1ccco1)C(c1cccs1)N(C)C2=O (centres undefined) |  | inconclusive: 9.11%
9 | CCC(=O)NC1(C(F)(F)F)C(=O)Nc2c1c(=O)[nH]c(=O)n2Cc1ccco1 (centres undefined) | inconclusive: 1.16 µM [rising, full curve, poor fit] | 
10 | O=C(CN=C1NS(=O)(=O)c2ccccc21)OCC(=O)c1cc(F)ccc1F |  | inconclusive: 14.1%
11 | O=[N+]([O-])c1cc(CN2CCN(c3ccccc3)CC2)c(O)c2ncccc12 |  | inconclusive: 115%
12 | Cc1cc(N2CCN(S(=O)(=O)c3ccc(Cl)c(Cl)c3)CC2)c2ccccc2n1 |  | inconclusive: -6.23%
13 | Cc1cc(C)c(S(=O)(=O)N2CCCC(C(=O)NCCC3=CCCCC3)C2)c(C)c1 (centres undefined) | inconclusive: 23.1 µM [falling, single point] | 
14 | Cc1ccccc1CN(c1ccc(C(=O)NCCC2=CCCCC2)cc1)S(C)(=O)=O | inconclusive: 10.3 µM [falling, single point] | 
15 | COc1c(Br)cc(Br)cc1/C=N/NC(=O)c1cccnc1 | inconclusive: 29.1 µM [falling, single point] | 
16 | O=C(Nc1nc(-c2ccccc2)cs1)Nc1ccc(F)cc1F |  | inconclusive: 0.115%
17 | COc1ccc(NCc2nnc(SCC(=O)Nc3cc(C)cc(C)c3)o2)cc1 |  | inconclusive: 62.6%
18 | S=C(NC1CCCC1)N1CCOCC1 |  | inconclusive: -23.8%
19 | CC(=O)Nc1ccc(NS(=O)(=O)C(F)(F)F)cc1 |  | inconclusive: -6.29%
20 | O=C(NC1CCCC1)C(c1ccccn1)N(C(=O)c1csnn1)c1ccccc1Cl (centres undefined) | inconclusive: 18.4 µM [activator, partial curve] | 
21 | COc1ccccc1CNC(=O)c1oc2ccc(S(=O)(=O)N3CCCC3)cc2c1C |  | inactive: -29.2%
22 | COc1ccc(CNc2ncc(-c3ccc(F)cc3)n2C)cc1OC |  | inconclusive: -17.4%
23 | CC(C)(C)c1nc(CN2CCOCC2)ccc1O |  | inconclusive: 33.3%
24 | Cc1nc(Cl)sc1C(=O)Nc1ccc(Cl)cc1 |  | inconclusive: 12.8%
25 | Cc1nn(C)c(Cl)c1C(=O)NCC(=O)Nc1ccc(C(C)C)cc1 |  | inconclusive: 31.2%

Row | SMILES | Potency | lipid storage change, negative = inhibition
26 | O=C(CN1C(=O)c2cccnc2Oc2ccc(Cl)cc21)NC1CCCCC1 |  | inconclusive: 23.5%
27 | Cc1cc(=O)oc2cc(OCC(=O)Nc3cccc(S(=O)(=O)N(C)C)c3)ccc12 | inconclusive: 0.517 µM [activator, full curve] | 
28 | O=C(Nc1ccccc1)c1n[nH]c(Cn2cncn2)n1 |  | inconclusive: 11.5%
29 | CCOC(=O)c1oc2cccc(O)c2c1C |  | inconclusive: -8.93%
30 | NS(=O)(=O)c1cccnc1Nc1ccc(Cl)c(Cl)c1 |  | inconclusive: 163%
31 | O=C(NC1CCCCC1)C(c1ccc(O)cc1)N(C(=O)c1cnccn1)c1cccc(F)c1 (centres undefined) |  | inconclusive: 24.3%
32 | Cc1ccn2cc(CCNC(=O)COc3ccccc3)nc2c1 |  | inconclusive: 42.3%
33 | CCc1nnc(NC(=O)CCN2C(=O)CCC2=O)s1 |  | inconclusive: 0.271%
34 | CCOc1ccc(CCNC(=O)CCNS(=O)(=O)c2ccc(Br)cc2)cc1OCC |  | inconclusive: -61.2%
35 | CCOc1ccccc1C(=O)N/N=C/c1cccc2cccnc12 |  | inconclusive: -20.3%
36 | Cc1cc(C)c(C(=O)CC2(O)C(=O)Nc3ccccc32)cc1C (centres undefined) | inconclusive: 0.0517 µM [activator, full curve, poor fit] | 
37 | CCN1C(=O)[C@H]2[C@@H](c3ccc(SC4CCCCC4)cc3)N3CCCC[C@@]3(C(=O)OC)[C@H]2C1=O |  | inconclusive: 6.36%
38 | COCCCn1c(SCC(=O)Nc2ccc(NC(=O)c3ccco3)c(OC)c2)nc2ccccc2c1=O | inconclusive: 29.1 µM [cytotoxic, single point] | 
39 | CN(C)CCN(C(=O)C1CCN(S(=O)(=O)c2cccs2)CC1)c1nc2ccccc2s1 |  | inconclusive
40 | C=CCNc1nc(N)c(C(=C(C#N)C#N)c2ccc(Br)cc2)s1 | inconclusive: 29.1 µM [falling, single point] | 
41 | CSc1nc2ccc(NC(=O)c3c(-c4ccccc4)noc3C)cc2s1 | inconclusive: 0.0046 µM [falling, full curve, poor fit] | 
42 | COc1ccccc1-c1cc(-c2ccccc2)nc(SCC(=O)O)c1C#N | inconclusive: 23.1 µM [activator, partial curve, poor fit] | 
43 | COc1ccccc1OCCNC(=O)c1cc(C2CC2)nc2c1cnn2C(C)C | inconclusive: 1.84 µM [falling, full curve, poor fit] | 
44 | O=C(CSc1nnc2scc(-c3ccccc3)n12)NCC1CCCO1 (centres undefined) |  | inconclusive: 23.9%
45 | COCCNC(=S)N/N=C(\C)c1ccc(Cl)c(Cl)c1 | inconclusive: 6.51 µM [activator, single point] | 
46 | COc1cccc(C2=NOC(C(=O)NCc3cccs3)C2)c1 (centres undefined) |  | inconclusive: 24.8%
47 | CCOc1ccccc1N/C=C(\C#N)c1nc2ccccc2n1C | inconclusive: 4.61 µM [activator, full curve] | 
48 | O=C(Nc1ccccc1)N1CCC(O)(c2cccc(C(F)(F)F)c2)CC1 |  | inconclusive: -100%
49 | COc1ccc(C(=O)Nc2ccccc2)cc1NC(=O)c1cccs1 | inconclusive: 29.1 µM [falling, partial curve, poor fit] | 

Grouped by structure: the compounds so far with an NH in an aromatic ring.
Row | SMILES | Potency | lipid storage change, negative = inhibition
9 | CCC(=O)NC1(C(F)(F)F)C(=O)Nc2c1c(=O)[nH]c(=O)n2Cc1ccco1 (centres undefined) | inconclusive: 1.16 µM [rising, full curve, poor fit] | 
28 | O=C(Nc1ccccc1)c1n[nH]c(Cn2cncn2)n1 |  | inconclusive: 11.5%
